Library screen at single concentrations

Protein sequences, listed by entry. Tags and fused reporters are not part of them. Residues count along the entry.
UniProt P9WNZ1, whole entry: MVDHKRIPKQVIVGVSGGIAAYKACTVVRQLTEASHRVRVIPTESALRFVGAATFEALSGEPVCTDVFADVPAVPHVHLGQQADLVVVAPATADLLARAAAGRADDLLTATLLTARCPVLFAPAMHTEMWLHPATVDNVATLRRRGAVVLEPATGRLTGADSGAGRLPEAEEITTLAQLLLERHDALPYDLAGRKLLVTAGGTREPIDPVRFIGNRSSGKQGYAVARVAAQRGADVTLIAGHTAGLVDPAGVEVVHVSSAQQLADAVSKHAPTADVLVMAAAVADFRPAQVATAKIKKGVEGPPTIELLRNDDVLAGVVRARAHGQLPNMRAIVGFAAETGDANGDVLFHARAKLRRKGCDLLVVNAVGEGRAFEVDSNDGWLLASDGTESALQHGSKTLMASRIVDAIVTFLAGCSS
UniProt I6X8D2, whole entry: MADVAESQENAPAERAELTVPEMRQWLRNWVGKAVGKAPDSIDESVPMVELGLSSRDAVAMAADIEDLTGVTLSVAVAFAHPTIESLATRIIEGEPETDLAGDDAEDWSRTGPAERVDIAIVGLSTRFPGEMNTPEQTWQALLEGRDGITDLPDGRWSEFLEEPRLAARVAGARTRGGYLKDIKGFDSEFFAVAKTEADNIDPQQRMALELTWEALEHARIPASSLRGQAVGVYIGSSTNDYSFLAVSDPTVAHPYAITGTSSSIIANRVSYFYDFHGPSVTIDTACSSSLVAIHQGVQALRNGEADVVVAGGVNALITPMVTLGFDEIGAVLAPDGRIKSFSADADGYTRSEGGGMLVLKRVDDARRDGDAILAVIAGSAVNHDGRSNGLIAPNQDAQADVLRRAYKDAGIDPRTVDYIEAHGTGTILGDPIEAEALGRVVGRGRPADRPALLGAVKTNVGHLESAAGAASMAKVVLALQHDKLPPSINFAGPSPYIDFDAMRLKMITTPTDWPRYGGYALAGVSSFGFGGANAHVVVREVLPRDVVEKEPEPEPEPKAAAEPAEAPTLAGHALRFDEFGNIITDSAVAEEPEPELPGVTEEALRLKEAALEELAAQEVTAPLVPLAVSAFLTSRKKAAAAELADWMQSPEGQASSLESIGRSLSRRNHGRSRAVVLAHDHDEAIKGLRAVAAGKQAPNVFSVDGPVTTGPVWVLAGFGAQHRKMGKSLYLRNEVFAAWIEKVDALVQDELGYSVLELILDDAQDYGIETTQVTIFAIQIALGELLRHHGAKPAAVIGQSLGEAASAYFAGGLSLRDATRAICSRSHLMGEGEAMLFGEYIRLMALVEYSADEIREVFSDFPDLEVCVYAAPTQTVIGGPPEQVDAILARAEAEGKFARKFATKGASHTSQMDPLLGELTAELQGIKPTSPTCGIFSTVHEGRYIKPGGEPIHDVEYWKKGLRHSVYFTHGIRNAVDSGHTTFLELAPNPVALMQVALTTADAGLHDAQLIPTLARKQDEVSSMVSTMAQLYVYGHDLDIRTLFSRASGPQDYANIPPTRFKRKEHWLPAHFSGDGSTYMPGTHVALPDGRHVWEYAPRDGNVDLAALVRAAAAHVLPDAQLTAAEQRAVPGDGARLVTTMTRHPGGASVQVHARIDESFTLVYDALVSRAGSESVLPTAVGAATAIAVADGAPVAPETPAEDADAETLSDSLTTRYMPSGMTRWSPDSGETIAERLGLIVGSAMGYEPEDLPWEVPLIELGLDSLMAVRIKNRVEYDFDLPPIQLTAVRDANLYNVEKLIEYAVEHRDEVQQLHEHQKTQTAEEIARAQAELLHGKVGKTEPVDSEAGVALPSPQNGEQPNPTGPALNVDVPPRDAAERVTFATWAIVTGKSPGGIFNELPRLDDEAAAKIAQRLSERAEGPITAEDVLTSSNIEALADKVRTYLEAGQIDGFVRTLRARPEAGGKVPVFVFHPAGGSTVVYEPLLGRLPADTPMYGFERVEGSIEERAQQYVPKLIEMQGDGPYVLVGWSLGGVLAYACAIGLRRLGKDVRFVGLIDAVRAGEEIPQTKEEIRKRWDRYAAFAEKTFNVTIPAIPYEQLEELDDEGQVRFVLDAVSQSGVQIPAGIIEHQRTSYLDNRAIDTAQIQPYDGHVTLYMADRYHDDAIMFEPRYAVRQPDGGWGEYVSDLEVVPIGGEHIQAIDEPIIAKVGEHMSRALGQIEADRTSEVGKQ
UniProt P9WPC5, whole entry: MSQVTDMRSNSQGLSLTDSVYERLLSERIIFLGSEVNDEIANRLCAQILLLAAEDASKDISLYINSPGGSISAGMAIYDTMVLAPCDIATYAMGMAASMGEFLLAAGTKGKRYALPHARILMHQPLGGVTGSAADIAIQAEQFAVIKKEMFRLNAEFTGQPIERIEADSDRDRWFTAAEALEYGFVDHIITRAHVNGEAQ
UniProt P9WPC3, whole entry partner: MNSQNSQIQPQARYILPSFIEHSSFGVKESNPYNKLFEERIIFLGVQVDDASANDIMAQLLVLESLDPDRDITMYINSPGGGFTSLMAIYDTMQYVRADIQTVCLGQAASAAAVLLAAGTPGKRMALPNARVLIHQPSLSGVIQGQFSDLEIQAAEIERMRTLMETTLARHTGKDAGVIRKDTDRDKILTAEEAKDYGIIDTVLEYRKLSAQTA
UniProt A4I591, 1-473: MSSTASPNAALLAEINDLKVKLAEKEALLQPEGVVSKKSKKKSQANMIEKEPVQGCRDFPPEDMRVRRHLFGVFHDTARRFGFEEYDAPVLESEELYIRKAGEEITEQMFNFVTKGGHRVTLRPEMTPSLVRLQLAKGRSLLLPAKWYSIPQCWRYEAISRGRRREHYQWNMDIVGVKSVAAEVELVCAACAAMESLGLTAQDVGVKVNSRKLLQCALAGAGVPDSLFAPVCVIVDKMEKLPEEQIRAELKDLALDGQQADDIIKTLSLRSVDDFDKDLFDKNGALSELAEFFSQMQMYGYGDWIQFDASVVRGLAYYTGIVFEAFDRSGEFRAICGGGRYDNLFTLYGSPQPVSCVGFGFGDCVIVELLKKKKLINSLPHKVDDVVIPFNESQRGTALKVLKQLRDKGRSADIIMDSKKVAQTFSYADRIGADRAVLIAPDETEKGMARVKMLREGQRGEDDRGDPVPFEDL
UniProt P9WFT3, whole entry: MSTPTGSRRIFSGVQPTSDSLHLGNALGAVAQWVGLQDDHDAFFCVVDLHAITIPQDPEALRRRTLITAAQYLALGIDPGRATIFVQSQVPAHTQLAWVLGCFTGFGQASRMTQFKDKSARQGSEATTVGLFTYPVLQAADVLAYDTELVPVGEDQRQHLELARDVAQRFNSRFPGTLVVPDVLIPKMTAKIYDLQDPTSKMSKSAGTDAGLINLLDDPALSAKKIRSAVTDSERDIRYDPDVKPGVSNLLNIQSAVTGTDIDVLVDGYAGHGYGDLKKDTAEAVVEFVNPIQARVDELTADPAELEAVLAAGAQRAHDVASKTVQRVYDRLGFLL

Measurements from “University of Dundee, Small-Polar-MMV Screening Library” (2021), ChEMBL document CHEMBL3988442.

Results are given as percent effect.
The controls that fix the scale are not given in the record; negative values are as filed.
The compounds are a random part of those screened.
Two or more numbers in one place are separate tests of the same structure; such repeats can differ widely.
A dash means the value is not listed here; it may have been measured.

CoaBC: 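Enzyme assay of CoaBC with a phosphate dye (Biomol Green) read at 650 nm. Target: Coenzyme A biosynthesis protein CoaBC, Mycobacterium tuberculosis (UniProt P9WNZ1). Tested at 30 µM. Direction is inferred from only a few compounds that gave an IC50; most scored high, so higher reads as stronger inhibition. Most strong results did not repeat in a second test. Size under these conditions: about 67,000 compounds, about 40 of them at 50% or above in at least one test.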
Pks13 thioesterase: 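Enzyme assay of the thioesterase domain of polyketide synthase 13; the read-out is not stated. Target: Polyketide synthase Pks13, Mycobacterium tuberculosis (UniProt I6X8D2). Concentration: 30 µM. Higher reads as stronger inhibition (inferred from which compounds were picked for retests). Of about 67,000 compounds tested this way, about 300 (0.46%) reached 50% or more in at least one test.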
ClpP1P2: 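ClpP1P2, Mycobacterium tuberculosis (UniProt P9WPC5 and UniProt P9WPC3). Protease assay of ClpP1P2, read by the AMC dye that it sets free. Concentration: 50 µM. Higher reads as stronger inhibition, judged from the few compounds that gave an IC50. Most other retested compounds had strongly negative values. Of about 69,000 compounds tested this way, about 10 (0.015%) reached 50% or more in at least one test.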
LiHisRS: 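Histidine-tRNA ligase, Leishmania infantum (UniProt A4I591). Enzyme assay of histidyl-tRNA synthetase; the read-out is not stated. Compounds at 30 µM. Direction is inferred from retests: higher values go with stronger inhibition. The assay is labelled LdHisRS but filed under L. infantum. About 69,000 compounds were tested under these conditions; 0.6% (about 410) showed 50% or more at least once.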
MtTrpRS: 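Enzyme assay of tryptophanyl-tRNA synthetase; the read-out is not stated. Target: Tryptophan-tRNA ligase, Mycobacterium tuberculosis (UniProt P9WFT3). Tested at 10 µM. Higher most likely means stronger inhibition; the record gives no direction and few retests gave an IC50. Of about 65,000 compounds tested this way, about 64 (0.098%) reached 50% or more in at least one test.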

SMILES,CoaBC,Pks13 thioesterase,ClpP1P2,LiHisRS,MtTrpRS
CS(=O)(=O)c1cc(C(=O)NS(=O)(=O)Cc2ccc(F)cc2)ccc1Cl,2.913%,-18%,-14.13%,24.1%,-1.098%
NCC1Cc2cc(-c3nccc(N4CCC(O)CC4)n3)cc(F)c2O1 (configuration not stated),33.48% and 15.87%,-4.314%,-6.619%,51.43%,-1.511%
Cc1cc(F)ccc1S(=O)(=O)N1CCN(C)Cc2ccccc21,-5.697%,7.276%,-1.74%,4.386%,4.046%
CNS(=O)(=O)c1cccc(C(C)NCc2ccc(C)o2)c1 (configuration not stated),6.349%,-20.47%,-4.184%,8.036%,-4.701%
O=C(NCc1csc(Br)c1)c1cnccn1,-8.579%,-24.36%,-6.754%,11.97%,0.7382%
CCc1nc(C)c(C(=O)NCCN2CCN(C(C)=O)CC2)s1,1.845%,-2.029%,-1.328%,-6.25%,-0.6603%
CCN(Cc1ccncc1)C(=O)c1cn(CCCc2ccccc2)nn1,2.475%,-1.915%,-14.48%,8%,-1.452%
CC(=O)N1CCCN(C(=O)c2csc(-c3ccc(C)cc3C)n2)CC1,8.094%,-11.15%,11.77%,15.38%,-3.013%
CC(c1cccnc1)N1CCN(C(=O)NCc2cnn(C)c2)CC1 (configuration not stated),12.27%,-24.83%,-5.824%,21.92%,-0.2974%
O=C(CNc1cc(Br)ccc1Br)NC1CCS(=O)(=O)C1 (configuration not stated),0.2141%,-16.5%,0.6346%,8.621%,3.665%
CCOC[C@H]1CC[C@H]2[C@H](CCN2C(=O)c2cnccn2)O1,-10.62%,-8.62%,-15.83%,4.167%,-9.528%
O=S(=O)(c1cccs1)N1CCN(Cc2nc(-c3ccco3)cs2)CC1,-1.018%,8.909%,-16.56%,25.64%,3.203%
CCc1ncc(C(=O)N2CCC(Nc3ccc(C)nn3)CC2)s1,2.089%,-9.756%,-42.48%,13.79%,-2.92%
Cn1ccnc1CN1CCCC(CCc2ccc(F)c(F)c2)C1 (configuration not stated),-23.72%,-27.7%,-5.884%,5.479%,-0.4471%
O=C(NCC1(CO)CC1)NC(c1nccs1)C1CC1 (configuration not stated),-5.434%,-24.84%,-6.235%,16.07%,0.2154%
CC1CCc2nn(CCNC(=O)Cc3ccc(F)cc3)c(=O)cc2C1 (configuration not stated),-9.693%,4.367%,0.03907%,12.77%,-3.907%
CC1=N[C@@]2(CC[C@@H]3CN(S(=O)(=O)CC(C)C)C[C@@H]32)C(=O)N1C,-0.5076%,-7.059%,-4.928%,2.941%,-5.844%
Cc1ccc(-c2ccnc(N[C@H]3COC[C@@H]3N3CCCCC3)n2)c(C)n1,6.087%,-8.033%,-18.19%,12.5%,-2.46%
CC(C)Oc1ncc(C(=O)N2CCc3ccc(O)cc3C2)cc1Cl,-1.341%,-20.33%,-2.479%,10.99%,5.563%
CCn1cnnc1CNC(=O)N1CCC(CN2CCOCC2)CC1,6.743%,-9.671%,3.7%,14.78%,-3.323%
CCOc1ccc(CN(C)C(=O)c2nc(N3CCCC3)ncc2Cl)cc1,14.6%,-1.888%,2.979%,11.11%,-1.816%
Cc1cc(C)c(CNC(=O)NCC2CCCO2)c(=O)[nH]1 (configuration not stated),-1.33%,-11.07%,10.67%,8.8%,-3.145%
N#Cc1cccc(S(=O)(=O)CCN2CCOC2=O)c1,-,-40.23%,-1.822%,19.17%,3.715%
Cc1cc2c(c(-c3c[nH]c(C)n3)c1)OC(CN)C2 (configuration not stated),2.948%,-,-11.36%,26.19%,0.6721%
CC(C)OCCC(=O)NCCC(=O)N1CCN(c2ccccn2)CC1,-0.1203%,-3.722%,-0.2014%,13.48%,3.228%
COc1cc(CN2CCCCCC2c2cccs2)cc(OC)c1OC (configuration not stated),4.452%,10.01%,1.652%,11.24%,1.908%
CNC(=O)NC(=O)C(C)Nc1ccccc1OCCOC (configuration not stated),2.871%,-18.06%,-0.4713%,16.53%,4.378%
COCCOc1ccnc(-c2noc([C@@H]3CCCN3C)n2)c1,9.492%,-8.895%,2.832%,14.86%,-1.745%
Cc1nc(C)c(C(=O)N2CCCc3c(F)ccc(F)c32)o1,-1.46%,-7.869%,-4.392%,4.444%,0.5084%
CC(C)Cc1ncc2c(n1)CN(C(=O)Cn1c(=O)oc3ccccc31)C2,2.233%,-5.112%,-4.342%,6.383%,-2.348%
Cc1noc(CNc2cc3c(cc2Cl)OCCCO3)n1,2.071%,-9.176%,0.01271%,16.13%,5.44%
CC(O)CN1CCN(C(=O)c2cc(Cl)cc3cccnc23)CC1 (configuration not stated),2.368%,-23.86%,-6.964%,12.04%,-2.54%
CC(=O)Nc1nc(C(=O)Nc2ccc(N3CCCCC3)nc2)cs1,3.655%,27.99%,12.21%,32.43%,-7.115%
Cc1ccc(CC2CCCN2CC(=O)NCc2ccccn2)cc1 (configuration not stated),6.883%,-31.41%,-9.227%,11.43%,0.7415%
Fc1ccc(-c2nnc(CNC3CCc4ncnn4C3)o2)cc1 (configuration not stated),-8.554%,0.9083%,0.4264%,8.824%,-3.469%
Cc1csc(N2CCN(C(=O)c3ccc(C)s3)CC2)n1,13.39%,-5.336%,-9.135%,11.4%,-1.271%
O=C(O)CCCc1ccc2c(c1)CC(=O)N2,-1.739%,-7.892%,-6.921%,2.618%,-1.83%
O=C(Cn1nc2c(cc1=O)CCCC2)NC(Cc1ccccc1)C(=O)O (configuration not stated),-0.7895%,-13.44%,-5.903%,9.655%,-5.272%
Cn1cc(N2CC3(CCN(CC4CCC4)CC3)OCC2=O)cn1,4.01%,3.806%,-4.895%,23.08%,0.4149%
NC(=O)c1cnc(NC2CC2)nc1CCNC(=O)CC1CCCC1,-3.563%,3.675%,-9.466%,9.859%,-5.774%
CC(C)N(CC(N)=O)C(=O)CCC(=O)c1ccc(F)cc1F,2.675%,-13.96%,-5.932%,0%,-3.579%
O=C(NCCCn1ccnc1)NCC(c1ccco1)N1CCCC1 (configuration not stated),0.7833%,-20.94%,-36.64%,15.04%,-4.389%
CC(C)n1c(C2CCCN(CC(N)=O)C2)nc2ccccc21 (configuration not stated),10.69%,-12.31%,3.242%,15.15%,0.8073%
Fc1cnc(N2C[C@H]3CCC[C@@]3(COc3ccccn3)C2)nc1,8.479%,12.51%,0.0863%,0%,-2.211%

Once more, the final 5:

- NC(=O)c1cnc(NC2CC2)nc1CCNC(=O)CC1CCCC1 | CoaBC: -3.563%; Pks13 thioesterase: 3.675%; ClpP1P2: -9.466%; LiHisRS: 9.859%; MtTrpRS: -5.774%
- CC(C)N(CC(N)=O)C(=O)CCC(=O)c1ccc(F)cc1F | CoaBC: 2.675%; Pks13 thioesterase: -13.96%; ClpP1P2: -5.932%; LiHisRS: 0%; MtTrpRS: -3.579%
- O=C(NCCCn1ccnc1)NCC(c1ccco1)N1CCCC1 (configuration not stated) | CoaBC: 0.7833%; Pks13 thioesterase: -20.94%; ClpP1P2: -36.64%; LiHisRS: 15.04%; MtTrpRS: -4.389%
- CC(C)n1c(C2CCCN(CC(N)=O)C2)nc2ccccc21 (configuration not stated) | CoaBC: 10.69%; Pks13 thioesterase: -12.31%; ClpP1P2: 3.242%; LiHisRS: 15.15%; MtTrpRS: 0.8073%
- Fc1cnc(N2C[C@H]3CCC[C@@]3(COc3ccccn3)C2)nc1 | CoaBC: 8.479%; Pks13 thioesterase: 12.51%; ClpP1P2: 0.0863%; LiHisRS: 0%; MtTrpRS: -2.211%